Some results were stated once for a whole list of compounds, not compound by compound.
System: HSV-1
Experiment: Virucidal activity against HSV-1 in culture medium (MM)
Format: cell-based, Herpes simplex virus type 1
Details: lipid in MM, 1 minute; Table 2

In the case of CCCCCC/C=C\CCCCCCCC(=O)O [Palmitoleic acid, palmitoleic acid], the “inactivation of HSV-1” value is reported as “greater than 10^5 fold”.

From US6596763B1, “Topical formulations containing as a therapeutic active agent fatty acids or fatty alcohols or monoglyceride derivatives thereof for treating of mucosa infections” (priority 1996, dated 2003)
